Data taken from patent US20170305975A1.

Experiments:
tau fibers (ftau) [1] = assay: SPR, Construct 4 on ftau
tau fibers (ftau) [2] = assay: SPR

B1: rs-g3p(N1N2)-hIgG4-Fc fusion protein (Construct 4) (Fc fusion)
chain: MAETVESCLAKPHTENSFTNVWKDDKTLDRYANYEGCLWNATGVVVCTGDETQCYGTWVPIGLAIPENEGGGSEGGGSEGGGSEGGGTKPPEYGDTPIPGYTYINPLDGTYPPGTEQNPANPNPSLEESQPLNTFMFQNNRFRNRQGALTVYTGTVTQGTDPVKTYYQYTPVSSKAMYDAYWNGKFRDCAFHSGFNEDPFVCEYQGQSSDLPQPPVNAGGGSGGGSGGGSEGGGSEGGGSEGGGSEGGGSGGGSGSGAMVRSPPCPSCPAPEFLGGPSVFLFPPKPKDTLMISRTPEVTCVVVDVSQEDPEVQFNWYVDGVEVHNAKTKPREEQFNSTYRVVSVLTVLHQDWLNGKEYKCKVSNKGLPSSIEKTISKAKGQPREPQVYTLPPSQEEMTKNQVSLTCLVKGFYPSDIAVEWESNGQPENNYKTTPPVLDSDGSFFLYSRLTVDKSRWQEGNVFSCSVMHEALHNHYTQKSLSLSPGK
**Q.** What does the source list for B1?
**A.** binding (tau fibers (ftau) [1]): binds; binding (tau fibers (ftau) [2]): binds

These are yes or no findings as the source states them, for the method shown. Binding can be weak; no strength is given. Sequences can lack the tags named with a protein.
